Reference: patent publication US12194158B2, “Oromucosal nanofiber carriers for therapeutic treatment” (Instar Technologies A.S., priority 2016, dated 2025)
At least one compound was matched to its structure with a doubt left.

Experiment: In vitro transmucosal permeation of liraglutide through porcine sublingual mucosa (Franz diffusion cell)
Format: in vitro ADME
Procedure: The liraglutide containing nanofibre carrier samples or the reference solution samples were applied onto fresh porcine sublingual mucosa of thickness ca 0.4 mm fixed in a Franz diffusion cell. An exposed mucosal area for permeation was 1.0 cm^2, and the stirred acceptor phase was phosphate buffer pH 7.4 tempered at 37°±0.5° C. Both the tested solutions (Victoza pre-filled pen for subcutaneous injection, 6 mg/mL and the liraglutide solution in buffer pH 6.80, 0.4 mg/mL) were applied onto the sublingual membrane in 400 μL volume. Donor nanofibre samples contained 0.5 mg of liraglutide in the form of a multilayered nanofibre disc and were suffused in donor space with 400 μL of buffer pH 6.80 or 8.15, respectively.
Determination of liraglutide was performed on an Agilent 1200 instrument. The parameters were as follows: Column Poroshell 120 EC-C18 (4.6×150 mm, particle size: 5.0 μm) was thermostated at 35° C. Samples were kept at 10° C., injection 5.00 μL. Mobile Phase A: Na2HPO4 (pH 7.75):ACN (85:15) was mixed with Mobile Phase B: ACN in gradient and pumped at speed 1.200 mL/min. Detector wavelength: 215 nm. Resulting liraglutide retention time was ca 3.4 min.

Structure (SMILES): CCCCCCCCCCCCCCCC(=O)N[C@@H](CCC(=O)NCCCC[C@H](NC(=O)[C@H](C)NC(=O)[C@H](C)NC(=O)[C@H](CCC(N)=O)NC(=O)CNC(=O)[C@H](CCC(=O)O)NC(=O)[C@H](CC(C)C)NC(=O)[C@H](Cc1ccc(O)cc1)NC(=O)[C@H](CO)NC(=O)[C@H](CO)NC(=O)[C@@H](NC(=O)[C@H](CC(=O)O)NC(=O)[C@H](CO)NC(=O)[C@@H](NC(=O)[C@H](Cc1ccccc1)NC(=O)[C@@H](NC(=O)CNC(=O)[C@H](CCC(=O)O)NC(=O)[C@H](C)NC(=O)[C@@H](N)Cc1cnc[nH]1)[C@@H](C)O)[C@@H](C)O)C(C)C)C(=O)N[C@@H](CCC(=O)O)C(=O)N[C@@H](Cc1ccccc1)C(=O)N[C@H](C(=O)N[C@@H](C)C(=O)N[C@@H](Cc1c[nH]c2ccccc12)C(=O)N[C@@H](CC(C)C)C(=O)N[C@H](C(=O)N[C@@H](CCCNC(=N)N)C(=O)NCC(=O)N[C@@H](CCCNC(=N)N)C(=O)NCC(=O)O)C(C)C)[C@@H](C)CC)C(=O)O [Liraglutide]
- release from the nanofibre carrier after contacting aqueous liquid on the sublingual membrane: immediately
